From PubChem BioAssay AID2551 (National Center for Advancing Translational Sciences (NCATS), 2010)
The whole screen tested about 310,000 compounds, of which about 17,000 (5.5%) were called active. This list was built around the results that the source calls inconclusive (neither active nor inactive); the mix of calls is not that of the screen. Calls follow the shape of the dose curve; as a rule, active = well fitted inhibition curve with a large enough effect; inconclusive = small, poorly fitted or top-dose-only effect, or effect the other way; inactive = no such curve, though single readings can be large or run the other way. Where the call is inconclusive, the potency comes from a doubtful curve fit.

By UniProt entry, the sequences of proteins in these tests, tags left out. Where a name states a change or a piece, a line headed by the entry shows the natural chain unless it says otherwise.
UniProt P51450: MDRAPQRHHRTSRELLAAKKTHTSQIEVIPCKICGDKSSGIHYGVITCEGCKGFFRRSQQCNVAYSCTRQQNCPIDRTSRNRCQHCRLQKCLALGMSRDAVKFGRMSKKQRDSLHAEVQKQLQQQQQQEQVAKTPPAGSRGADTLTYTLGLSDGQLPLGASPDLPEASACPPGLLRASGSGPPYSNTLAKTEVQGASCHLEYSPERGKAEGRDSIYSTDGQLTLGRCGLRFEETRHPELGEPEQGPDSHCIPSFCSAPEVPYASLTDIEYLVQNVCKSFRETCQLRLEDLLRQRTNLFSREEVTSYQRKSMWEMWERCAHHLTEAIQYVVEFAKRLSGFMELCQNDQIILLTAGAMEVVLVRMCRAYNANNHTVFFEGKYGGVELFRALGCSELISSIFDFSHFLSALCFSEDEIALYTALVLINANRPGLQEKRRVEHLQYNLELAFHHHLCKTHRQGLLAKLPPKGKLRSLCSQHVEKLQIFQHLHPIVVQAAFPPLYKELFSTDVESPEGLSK

target: Nuclear receptor ROR-gamma (Mus musculus) (UniProt P51450); assay: qHTS for inhibitors of ROR gamma transcriptional activity; settings: Drosophila S2 Gal4-RORgamma UAS-luciferase reporter, 20 h; activity change, negative = inhibition: at 53.6 µM (top of the series); also: nearly all actives have a fitted effect of over 60% in size
Procedure, shortened: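 Drosophila S2 cells stably expressing Gal4-DBD/mouse RORγ fusion under metallothionein promoter plus UAS-luciferase; compound 1 h, then 700 uM CuSO4 induction for 20 h at ambient temperature; inhibition read as reduced luminescence.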
% is scaled to controls: 0 for no effect and ±100 for the full control effect; potency is read from the fitted curve at half-maximal effect.

SMILES	Potency	activity change, negative = inhibition
Cc1nc2nc(-c3ccc(Cl)cc3)cn2nc1C	inactive	
N=C(N)S/C=C\C(=O)O	active: 31.6 µM	
Cc1ccc(-n2nnnc2-c2cnc(-c3cccnc3)nc2C(F)(F)F)cc1	inconclusive: 20 µM [inhibitor, single point]	
CCn1c(CNc2ccc(Cl)cc2)nnc1SCc1ccc(Cl)cc1	inactive	
CC(=O)c1ccc(NC(=O)C(C)OC(=O)COc2ccc(C#N)cc2)cc1 (configuration not stated)	inconclusive: 35.5 µM [activator, single point]	
Cc1ccc(O)c(-c2cc(-c3cccc(F)c3)n[nH]2)c1	inconclusive: 17.8 µM [inhibitor, single point]	
CCN(CC)CCOc1ncnc2c1oc1ccccc12	inactive	
CCN(CCNC(=O)C1CCN(S(=O)(=O)c2cccc3nsnc23)CC1)c1ccccc1	inconclusive: 5.62 µM [activator, full curve]	
Cc1ccc2cc(CN(CCCO)S(=O)(=O)c3cccc4nsnc34)c(=O)[nH]c2c1	inactive	
Cc1cccc(Nc2nc(C)cc(C)n2)c1	inactive	
CC(C)Cn1[nH]c2c3c(ccc2c1=O)C(=O)c1ccccc1C3=O	inconclusive: 0.794 µM [inhibitor, full curve, poor fit]	
Oc1c(Br)cc2oc3c(c2c1CNCc1ccccc1)CCCC3	inconclusive: 22.4 µM [inhibitor, single point]	
CC(C)C(C(=O)Nc1nccs1)c1ccc(Cl)cc1 (configuration not stated)	active: 14.1 µM	
O=C(c1ccc(F)cc1)n1c(=S)nc2ccccn21	inconclusive: 2 µM [inhibitor, full curve, poor fit]	
O=C(Cn1nc(-c2cccc(Cl)c2)ccc1=O)Nc1cccnc1	inactive	
Cc1csc(NC(=O)CSc2ccc(-c3ccccn3)nn2)n1	inactive	
CCn1c2ccccc2c2cc(NC(=O)c3ccc(C)c([N+](=O)[O-])c3)ccc21	inactive	
N#C/C(=C\c1ccco1)C(=O)Nc1cccc2ncccc12	inconclusive: 12.6 µM [activator, partial curve]	
CC1CN=C2C(C(=O)Nc3ccccc3)=C(O)CC(c3ccccc3)N21 (configuration not stated)	inconclusive: 22.4 µM [activator, single point]	
CCOc1ccc(Br)cc1C1=NN(C(C)=O)C(c2ccc([N+](=O)[O-])s2)O1 (configuration not stated)	inconclusive: 14.1 µM [inhibitor, single point]	
CC1CCCC(C)N1C(=O)CSc1nnc(C2CCCCC2)o1 (configuration not stated)	inconclusive: 35.5 µM [inhibitor, single point]	
C/C(=N\NC(=O)c1cccc(S(=O)(=O)Nc2cccc(Cl)c2)c1)c1cccs1	active: 5.01 µM	
COc1ccc2[nH]c(C(=O)N/N=C/c3ccc(O)cc3O)cc2c1	inconclusive: 17.8 µM [inhibitor, single point]	
COC(=O)c1ccccc1NC(=O)COC(=O)C1CCCCC1	inactive	
COC(=O)c1ccc(OS(=O)(=O)N(C)C)cc1	inconclusive: 5.62 µM [inhibitor, single point]	
CCOC(=O)C1=C(CC)OC(N)=C(C#N)C1c1ccc(OC)cc1OC (configuration not stated)	inconclusive: 35.5 µM [activator, single point]	

SMILES	Potency	activity change, negative = inhibition
CCOC(=O)CC1Sc2ccccc2NC1=S (configuration not stated)	active: 3.55 µM	
COc1cc2ncnc(NCc3ccc4c(c3)OCO4)c2cc1OC	inactive	
Clc1ccccc1C1CC(c2ccccc2)Nc2ncnn21 (configuration not stated)	inconclusive: 14.1 µM [inhibitor, single point]	
CC1=Nc2cc(C(=O)O)ccc2Sc2ccc(Br)cc21	inactive	
O=C(NCc1ccco1)c1cnn2c(C(F)(F)F)cc(-c3ccccc3)nc12	active: 15.8 µM	
COc1ccccc1OCc1nnc(SCC(=O)NCc2ccco2)n1-c1ccccc1	inconclusive: 1.41 µM [activator, partial curve]	
CCc1cc2c(=O)c(-c3nc4ccccc4n3C)c(C)oc2c(CN2CCOCC2)c1O	inactive	
COc1ccc(CC(=O)Nc2oc(-c3ccccc3)c(-c3ccccc3)c2C#N)cc1OC	inconclusive: 7.94 µM [activator, partial curve]	
COc1ccc(S(=O)(=O)NCCc2cn3cccc(C)c3n2)cc1OC	inconclusive: 5.62 µM [inhibitor, single point]	
COC(=O)C(C)Sc1nnc(-c2ccncc2)o1 (configuration not stated)	inactive	
O=C(CCNC(=O)c1ccccc1Cl)Nc1cc(S(=O)(=O)N2CCOCC2)ccc1N1CCCC1	inactive	
COc1ccc(C/C(O)=C(\C#N)c2nc3ccccc3[nH]2)cc1OC	active: 11.2 µM	
CCOc1ccc(NC(=O)CSc2nccn2C)cc1	inconclusive: 5.62 µM [activator, single point]	
Cc1ccc(S(=O)(=O)N2CCOC2CNC(=O)C(=O)NCCc2ccc(S(N)(=O)=O)cc2)cc1 (configuration not stated)	inconclusive: 35.5 µM [activator, single point]	
Cc1ccc(Sc2ccc(CN3CCCC3)cc2[N+](=O)[O-])cc1	inactive	
O=C(CS(=O)(=O)Cc1ccccc1)N1CCN(c2ccccc2F)CC1	inactive	
COc1ccc2[nH]cc(CCNC(=O)c3ccc4ccccc4n3)c2c1	inconclusive: 20 µM [activator, single point]	
Cc1cc(SCC(=O)Nc2cccc(S(=O)(=O)NC3=NCCCCC3)c2)nc2ccccc12	inactive	
CS(=O)(=O)Nc1ccc(C2=NN(C(=O)C3CCCCC3)C(c3cccs3)C2)cc1 (configuration not stated)	inconclusive: 20 µM [activator, single point]	
CC(=O)Nc1ccc(C(=O)N/N=C/c2cc(Br)cc(Br)c2O)cc1	active: 5.01 µM	
Cc1cccc[n+]1CC(=O)Nc1ccc([N+](=O)[O-])cc1	inactive	
S=C(NCC1CCCO1)N1CCN(c2ccc(Cl)c(Cl)c2)CC1 (configuration not stated)	inconclusive: 35.5 µM [inhibitor, single point]	
S=C(NCc1ccc(Cl)cc1)Nc1ccc(Cl)cc1Cl	active: 11.2 µM	
COC(=O)C1=C(C)N(c2cc(C)cc(C)c2)/C(=C/c2ccco2)C1=O	inconclusive: 35.5 µM [inhibitor, single point]	
CNC(=O)c1ccc2snnc2c1	inactive	
N#Cc1ccc(OS(=O)(=O)c2ccc(-c3ccon3)s2)cc1	inconclusive: 35.5 µM [activator, single point]	

Single entries from the entries so far:
Potency with COc1ccc(C/C(O)=C(\C#N)c2nc3ccccc3[nH]2)cc1OC is entered as active: 11.2 µM
Potency with CS(=O)(=O)Nc1ccc(C2=NN(C(=O)C3CCCCC3)C(c3cccs3)C2)cc1 (configuration not stated) is entered as inconclusive: 20 µM [activator, single point]
Potency with CCN(CCNC(=O)C1CCN(S(=O)(=O)c2cccc3nsnc23)CC1)c1ccccc1 is entered as inconclusive: 5.62 µM [activator, full curve]

Remaining list, next part.

SMILES	Potency	activity change, negative = inhibition
S=c1[nH]nc(-c2cc(-c3ccccc3)n[nH]2)n1/N=C/c1c2ccccc2cc2ccccc12	active: 7.94 µM	
Fc1cccc(COc2ccccc2C(=S)N2CCCC2)c1	active: 11.2 µM	
O=C(COc1ccc2c(c1)CCC2)N1CCc2ccccc21	inconclusive: 12.6 µM [activator, single point]	
COc1ccc(N(C(=O)c2snc(C(N)=O)c2N)C(C(=O)NCc2ccccc2)c2ccc(F)cc2)c(OC)c1 (configuration not stated)	inconclusive: 35.5 µM [activator, single point]	
Cc1ccc(OCC(=O)O/N=C(\N)c2cccnc2)cc1	inconclusive: 12.6 µM [activator, partial curve]	
CO[C@H]1COC(=O)C/C=C\[C@H](C)[C@@H](NS(=O)(=O)c2ccc(C)cc2)COC(=O)CCC[C@@H]1C		inactive: 6.34% [at 10 µM]
COCCNC(=S)N/N=C(\C)c1ccccc1O	active: 0.199 µM	
CCOC(=O)c1c(NC(=O)c2c(C(=O)O)cccc2[N+](=O)[O-])sc(C)c1C	inactive	
Cc1cc(C(=O)Nn2c(-c3ccc(Br)cc3)nc3ccccc3c2=O)ccc1[N+](=O)[O-]	inconclusive: 15.8 µM [activator, single point]	
O=C(Nc1nnc(SCc2ccc(F)cc2)s1)c1ccc2c(c1)C(=O)N(c1ccccc1Cl)C2=O	inactive	
N#Cc1nc(Cc2cccc3ccccc23)oc1NCCCn1ccnc1	inconclusive: 17.8 µM [activator, single point]	
C=CCn1c(-c2ccccc2OCC)n[nH]c1=S	active: 10 µM	
O=C(c1ccco1)N1CCN(C(c2ccc(F)cc2)c2nnnn2Cc2cccs2)CC1 (configuration not stated)	inconclusive: 11.2 µM [activator, partial curve]	
N#CC(C#N)=C1C=CC=CN1/C(=C\c1ccco1)C(=O)c1ccc(-c2ccccc2)cc1	active: 3.98 µM	
COc1cc(C)c(NC(=S)Nc2cccc(Cl)c2)cc1OC	inconclusive: 0.126 µM [inhibitor, full curve, poor fit]	
O=c1oc2ccccc2c(Nc2cccc3cccnc23)c1[N+](=O)[O-]	active: 11.2 µM	
O=C(O)c1ccc(S(=O)(=O)/N=C2\C=C(Nc3ccccc3F)C(=O)c3ccccc32)cc1	inconclusive: 35.5 µM [inhibitor, single point]	
CCOc1ccc(C(=O)NC(=S)NCCCN2CCOCC2)cc1	inconclusive: 17.8 µM [inhibitor, partial curve]	
COC(=O)C(CCCCN1C(=O)C2C3C=CC(C3)C2C1=O)N1C(=O)C2C3C=CC(C3)C2C1=O (configuration not stated)	inactive	
COc1cc2c(cc1OC)C[N+](C)(C)CC2	inactive	
COc1ccccc1COCC(O)CN(Cc1ccco1)Cc1ccccc1O (configuration not stated)	inconclusive: 31.6 µM [inhibitor, single point]	
CC(Sc1nc(-c2ccc(F)cc2)cs1)C(=O)N1c2ccccc2CC1C (configuration not stated)	inconclusive: 20 µM [activator, single point]	
Cc1cccc(NC(=S)NC2CC3C=CC2C3)c1 (configuration not stated)	active: 5.01 µM	
CCOC(=O)c1sc(NC(=O)c2sccc2C)cc1C	inconclusive: 0.158 µM [activator, full curve]	
Cc1ccccc1NC1=NCC(c2ccc([N+](=O)[O-])cc2)S1 (configuration not stated)	inconclusive: 35.5 µM [inhibitor, single point]	
